Laboratory results as given in PubChem BioAssay AID330 (DTP/NCI, 2004).
The list shows only some results of the screen, not a fair sample: it is rich in T/C values a quarter to a half above the control, in often repeated tests (any T/C) and in doses without a T/C. Other doses and runs of a compound stand elsewhere. T/C is the treated group as % of the vehicle group. Some entries give survivors of the animals treated and no T/C: the source holds a T/C of zero for them, seemingly a mark for toxic or unscored doses. Some doses without a T/C left all or most animals alive at the check, yet need not have been tolerated: survival well below the control is almost never listed, so the zero probably covers shortened survival too. Counts of survivors are from the toxicity check (mostly the fifth day) where no day follows; animals may have died later. Schedule codes are those of the source, read here as Q, the interval in days (D) or hours (H), X, the number of doses. Some entries hold several experiments; their values stand side by side, smallest first. For survival time, this PubChem deposit counts one and a half times the control or more as active, and values a quarter to a half above the control carry no call in these data; other NCI protocols may use other cut-offs. Some T/C values are followed by the survivors on the day toxicity was checked, most often the fifth; where none is given, no animal had died by that day.

Tested on: P388 leukemia ip, CD2F1 mice, survival T/C
Assay: NCI In Vivo Anticancer Drug Screen. Data for tumor model P388 Leukemia (intraperitoneal) in CD2F1 (CDF1) mice
Conditions: T/C endpoint: median survival time, higher T/C = longer survival
[1] = dose: 100.0 mg/kg/injection, schedule: Q01DX005 (ip), vehicle: Klucel (hydroxypropylcellulose) (HPC)
[2] = dose: 200.0 mg/kg/injection, schedule: Q01DX005 (ip), vehicle: Klucel (hydroxypropylcellulose) (HPC)
[3] = dose: 7.5 mg/kg/injection, schedule: Q01DX005 (ip), vehicle: Klucel (hydroxypropylcellulose) (HPC)
[4] = dose: 240.0 mg/kg/injection, schedule: Q01DX005 (ip), vehicle: Klucel (hydroxypropylcellulose) (HPC)
[5] = dose: 50.0 mg/kg/injection, schedule: Q01DX009 (ip), vehicle: saline with Tween-80
[6] = dose: 100.0 mg/kg/injection, schedule: Q01DX009 (ip), vehicle: saline with Tween-80
[7] = dose: 200.0 mg/kg/injection, schedule: Q01DX009 (ip), vehicle: saline with Tween-80

## Cc1[nH]c(N)nc(=S)c1CCCNc1ccc(C(=O)NC(CCC(=O)O)C(=O)O)cc1 (centres undefined)
dose: 50.0 mg/kg/injection, schedule: Q01DX005 (ip), vehicle: Klucel (hydroxypropylcellulose) (HPC)
  survivor count: 2 of 6
[1]
  survivor count: 0 of 6
[2]
  survivor count: 0 of 6

## CC(=O)c1ccc(N=C2c3ccccc3CN2c2ccc(C(C)=O)cc2)cc1
dose: 200.0 mg/kg/injection, schedule: Q01DX005 (ip), vehicle: saline with Tween-80
  survivor count: 6 of 6

## Cc1ccc(C)[nH][nH]c(N)n1
dose: 200.0 mg/kg/injection, schedule: Q01DX009 (ip), vehicle: water
  survivor count: 1 of 6
dose: 400.0 mg/kg/injection, schedule: Q01DX009 (ip), vehicle: water
  survivor count: 0 of 6

## CC(=O)Nc1ccc(N=NNc2ccccc2)cc1
dose: 25.0 mg/kg/injection, schedule: Q01DX001 (ip), vehicle: Klucel (hydroxypropylcellulose) (HPC)
  survivor count: 2 of 6
dose: 50.0 mg/kg/injection, schedule: Q01DX001 (ip), vehicle: Klucel (hydroxypropylcellulose) (HPC)
  survivor count: 0 of 6

## C[n+]1c(-c2ccc(/C=N/Nc3n[nH]c(=S)n3/N=C/c3ccc(-c4cn5ccsc5[n+]4C)cc3)cc2)cn2ccsc21
dose: 3.75 mg/kg/injection, schedule: Q01DX005 (ip), vehicle: saline with Tween-80
  survivor count: 0 of 6
dose: 7.5 mg/kg/injection, schedule: Q01DX005 (ip), vehicle: saline with Tween-80
  survivor count: 0 of 6
dose: 15.0 mg/kg/injection, schedule: Q01DX005 (ip), vehicle: saline with Tween-80
  survivor count: 0 of 6
dose: 30.0 mg/kg/injection, schedule: Q01DX005 (ip), vehicle: saline with Tween-80
  survivor count: 0 of 6
dose: 60.0 mg/kg/injection, schedule: Q01DX005 (ip), vehicle: saline with Tween-80
  survivor count: 0 of 6
dose: 120.0 mg/kg/injection, schedule: Q01DX005 (ip), vehicle: saline with Tween-80
  survivor count: 0 of 6
dose: 240.0 mg/kg/injection, schedule: Q01DX005 (ip), vehicle: saline with Tween-80
  survivor count: 0 of 6

## CC(C)(C)N1COC(c2ccccc2)C1 (centres undefined)
dose: 200.0 mg/kg/injection, schedule: Q01DX005 (ip), vehicle: saline
  survivor count: 0 of 6

## c1ccc([S][Pb]([c]2ccccc2)([c]2ccccc2)[c]2ccccc2)cc1
dose: 25.0 mg/kg/injection, schedule: Q01DX001 (ip), vehicle: saline
  survivor count: 6 of 6
dose: 50.0 mg/kg/injection, schedule: Q01DX001 (ip), vehicle: saline
  survivor count: 6 of 6
dose: 100.0 mg/kg/injection, schedule: Q01DX001 (ip), vehicle: saline
  survivor count: 0 of 6 and 1 of 6
dose: 200.0 mg/kg/injection, schedule: Q01DX001 (ip), vehicle: saline
  survivor count: 2 of 6
dose: 400.0 mg/kg/injection, schedule: Q01DX001 (ip), vehicle: saline
  survivor count: 0 of 6

## O=S(=O)(O)CC[S][Sn]([S]CCS(=O)(=O)O)([c]1ccccc1)[c]1ccccc1
dose: 0.93 mg/kg/injection, schedule: Q01DX005 (ip), vehicle: Klucel (hydroxypropylcellulose) (HPC)
  T/C: 132 % of control
dose: 1.87 mg/kg/injection, schedule: Q01DX005 (ip), vehicle: Klucel (hydroxypropylcellulose) (HPC)
  T/C: 142 % of control
dose: 3.75 mg/kg/injection, schedule: Q01DX005 (ip), vehicle: Klucel (hydroxypropylcellulose) (HPC)
  T/C: 144 % of control [5 of 6 alive]
[3]
  T/C: 137 % of control [5 of 6 alive]
  survivor count: 2 of 6
dose: 15.0 mg/kg/injection, schedule: Q01DX005 (ip), vehicle: Klucel (hydroxypropylcellulose) (HPC)
  survivor count: 0 of 6
dose: 60.0 mg/kg/injection, schedule: Q01DX005 (ip), vehicle: Klucel (hydroxypropylcellulose) (HPC)
  survivor count: 0 of 6
dose: 120.0 mg/kg/injection, schedule: Q01DX005 (ip), vehicle: Klucel (hydroxypropylcellulose) (HPC)
  survivor count: 0 of 6
[4]
  survivor count: 0 of 6

## O=c1oc2cccc(O)c2s1
dose: 100.0 mg/kg/injection, schedule: Q01DX001 (ip), vehicle: Klucel (hydroxypropylcellulose) (HPC)
  survivor count: 0 of 6
dose: 200.0 mg/kg/injection, schedule: Q01DX001 (ip), vehicle: Klucel (hydroxypropylcellulose) (HPC)
  survivor count: 0 of 6

## Cn1c(=O)c2c(ncn2CCNC(c2ccccc2)c2ccc(Br)cc2)n(C)c1=O (centres undefined)
dose: 50.0 mg/kg/injection, schedule: Q01DX005 (ip), vehicle: other
  survivor count: 0 of 5
dose: 100.0 mg/kg/injection, schedule: Q01DX005 (ip), vehicle: other
  survivor count: 0 of 5
dose: 200.0 mg/kg/injection, schedule: Q01DX005 (ip), vehicle: other
  survivor count: 0 of 5

## NC(CCCc1ccc(N(CCCl)CCCl)cc1)C(=O)O (centres undefined)
[5]
  survivor count: 0 of 6
[6]
  survivor count: 0 of 6
[7]
  survivor count: 0 of 6

## CCC1CC2CN(CCc3c([nH]c4ccccc34)C(C(=O)OC)(c3cc4c(cc3OC)N(C)C3C(O)(C(=O)OC)C(OC(C)=O)C5(CC)CCCN6CCC43C65)C2)C1 (centres undefined)
dose: 4.0 mg/kg/injection, schedule: Q01DX001 (ip), vehicle: water
  T/C: 130 % of control
dose: 8.0 mg/kg/injection, schedule: Q01DX001 (ip), vehicle: water
  T/C: 134 and 140 % of control
dose: 64.0 mg/kg/injection, schedule: Q01DX001 (ip), vehicle: water
  survivor count: 0 of 6
dose: 128.0 mg/kg/injection, schedule: Q01DX001 (ip), vehicle: water
  survivor count: 0 of 6

## O=S(=O)(O)Cc1ccc(CS(=O)(=O)O)cc1
dose: 100.0 mg/kg/injection, schedule: Q04DX002 (ip), vehicle: saline with Tween-80
  survivor count: 3 of 6
dose: 200.0 mg/kg/injection, schedule: Q04DX002 (ip), vehicle: saline with Tween-80
  survivor count: 0 of 6
dose: 400.0 mg/kg/injection, schedule: Q04DX002 (ip), vehicle: saline with Tween-80
  survivor count: 0 of 6

## C/C(=N\NC(=S)N1CCCC1)c1ncccn1
dose: 100.0 mg/kg/injection, schedule: Q04DX003 (ip), vehicle: Klucel (hydroxypropylcellulose) (HPC)
  survivor count: 0 of 6
dose: 200.0 mg/kg/injection, schedule: Q04DX003 (ip), vehicle: Klucel (hydroxypropylcellulose) (HPC)
  survivor count: 0 of 6
dose: 400.0 mg/kg/injection, schedule: Q04DX003 (ip), vehicle: Klucel (hydroxypropylcellulose) (HPC)
  survivor count: 0 of 6

## CC(=O)OCCSSCCOC(C)=O
[7]
  survivor count: 5 of 6

## C[n+]1c(-c2cccc(OCCOCCOc3cccc(-c4c5cc(N)ccc5c5ccc(N)cc5[n+]4C)c3)c2)c2cc(N)ccc2c2ccc(N)cc21
dose: 0.39 mg/kg/injection, schedule: Q01DX009 (ip), vehicle: water
  T/C: 134 % of control
dose: 1.56 mg/kg/injection, schedule: Q01DX009 (ip), vehicle: water
  T/C: 142 % of control
dose: 3.13 mg/kg/injection, schedule: Q01DX009 (ip), vehicle: water
  T/C: 133 % of control

## COc1ccc2c(=O)cc(-c3ccccc3)[nH]c2c1
dose: 150.0 mg/kg/injection, schedule: Q01DX009 (ip), vehicle: saline
  survivor count: 4 of 6

## CCOC(=O)C1OC(n2cnc3c(N)ncnc32)C(O)C1O (centres undefined)
dose: 50.0 mg/kg/injection, schedule: Q01DX009 (ip), vehicle: saline
  survivor count: 6 of 6

## O=CC(O)C(O)C(O)COc1cc(CO)cc2c1C(=O)c1ccccc1C2=O (centres undefined)
[2]
  survivor count: 2 of 5

## Cc1[nH]c2ccccc2c1-c1cc(-c2cc(-c3c(C)[nH]c4ccccc34)nc(N)n2)nc(N)n1
[4]
  survivor count: 2 of 6

## CN(C)P1(=S)OCC(C(C)(C)C)CN1C (centres undefined)
dose: 400.0 mg/kg/injection, schedule: Q04DX003 (ip), vehicle: saline with Tween-80
  survivor count: 1 of 6

## CCCCNC(=O)ON1C(=O)c2ccccc2C1=O
[5]
  survivor count: 2 of 6
[6]
  survivor count: 0 of 6
[7]
  survivor count: 0 of 6

## CSc1nccn2c(C)nnc12
dose: 400.0 mg/kg/injection, schedule: Q01DX001 (ip), vehicle: suspension in saline
  survivor count: 0 of 6

## OC(/C=C/CC(O)(C(F)(F)F)C(F)(F)F)(C(F)(F)F)C(F)(F)F
dose: 200.0 mg/kg/injection, schedule: Q01DX009 (ip), vehicle: saline
  survivor count: 6 of 6

## CCN(CC)CCOC(=O)Cc1cccc2c(=O)cc(-c3cccs3)oc12
[1]
  T/C: 136 % of control
[2]
  survivor count: 5 of 6
